In PMC12043393:
These are yes or no findings as the source states them, for the method shown. Binding seen in cells or lysates may run through a third protein. Some entries that bind do so weakly or less than the wild type.

By UniProt entry, the sequences of proteins in these tests, tags left out.
UniProt Q9Y5S8: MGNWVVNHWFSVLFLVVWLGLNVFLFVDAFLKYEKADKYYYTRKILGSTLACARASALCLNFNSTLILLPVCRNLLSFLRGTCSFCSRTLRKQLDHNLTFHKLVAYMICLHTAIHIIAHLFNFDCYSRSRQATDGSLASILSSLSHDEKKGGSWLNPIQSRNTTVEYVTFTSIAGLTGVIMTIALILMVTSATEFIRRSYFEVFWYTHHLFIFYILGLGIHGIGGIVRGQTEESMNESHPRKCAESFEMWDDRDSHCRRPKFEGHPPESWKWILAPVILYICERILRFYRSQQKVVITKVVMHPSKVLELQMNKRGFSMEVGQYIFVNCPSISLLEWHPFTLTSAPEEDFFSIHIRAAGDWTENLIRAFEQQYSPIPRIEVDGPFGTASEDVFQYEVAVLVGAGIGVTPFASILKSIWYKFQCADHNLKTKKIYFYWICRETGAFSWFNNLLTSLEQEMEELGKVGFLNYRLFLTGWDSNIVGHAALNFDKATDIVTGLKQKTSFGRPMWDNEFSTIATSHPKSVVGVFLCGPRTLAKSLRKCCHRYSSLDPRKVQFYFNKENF

Molecular target: T1, FBXO38 (human (endogenous in HUVECs)) (UniProt Q6PIJ6)
T1 sequence: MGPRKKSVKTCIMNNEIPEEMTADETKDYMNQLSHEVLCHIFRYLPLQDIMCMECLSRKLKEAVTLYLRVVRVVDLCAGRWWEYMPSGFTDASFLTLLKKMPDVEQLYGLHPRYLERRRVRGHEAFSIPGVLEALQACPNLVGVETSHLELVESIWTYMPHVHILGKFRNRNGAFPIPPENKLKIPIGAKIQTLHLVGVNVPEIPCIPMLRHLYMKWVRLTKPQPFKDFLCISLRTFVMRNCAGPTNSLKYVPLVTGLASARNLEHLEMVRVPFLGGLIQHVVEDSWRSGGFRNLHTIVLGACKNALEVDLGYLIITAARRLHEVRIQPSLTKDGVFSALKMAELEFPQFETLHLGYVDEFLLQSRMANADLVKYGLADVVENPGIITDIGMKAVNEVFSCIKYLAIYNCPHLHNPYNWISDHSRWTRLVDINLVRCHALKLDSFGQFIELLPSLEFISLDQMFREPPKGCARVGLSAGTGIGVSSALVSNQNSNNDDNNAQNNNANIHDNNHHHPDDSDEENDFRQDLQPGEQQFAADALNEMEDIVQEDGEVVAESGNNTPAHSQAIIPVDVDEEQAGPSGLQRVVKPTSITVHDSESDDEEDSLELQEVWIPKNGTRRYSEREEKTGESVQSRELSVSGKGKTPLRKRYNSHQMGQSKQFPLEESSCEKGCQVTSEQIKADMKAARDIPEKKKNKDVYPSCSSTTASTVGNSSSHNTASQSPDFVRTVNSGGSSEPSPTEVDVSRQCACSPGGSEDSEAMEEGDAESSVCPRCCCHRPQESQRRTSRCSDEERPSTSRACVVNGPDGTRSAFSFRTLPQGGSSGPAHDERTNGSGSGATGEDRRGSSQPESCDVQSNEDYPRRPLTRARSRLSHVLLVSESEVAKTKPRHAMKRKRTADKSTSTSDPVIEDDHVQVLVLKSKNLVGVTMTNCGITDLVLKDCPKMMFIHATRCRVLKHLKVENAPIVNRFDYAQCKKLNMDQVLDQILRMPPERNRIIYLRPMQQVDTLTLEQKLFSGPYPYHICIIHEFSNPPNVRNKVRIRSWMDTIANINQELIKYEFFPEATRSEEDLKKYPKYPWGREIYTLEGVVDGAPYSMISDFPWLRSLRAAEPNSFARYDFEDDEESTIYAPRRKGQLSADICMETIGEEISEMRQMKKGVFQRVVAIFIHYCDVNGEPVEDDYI
Test: co-IP; cells lysed in IP buffer with protease/phosphatase inhibitors; lysates immunoprecipitated overnight at 4°C with agarose-conjugated FBXO38 antibody or IgG control; Western blot

binding: binds
Substance: Nox1 (from UniProt Q9Y5S8 1-564)
